This is one part of the list.

Chains of the proteins cited; added tags and fusions are not shown.
UniProt Q0JBA9, entry or part of it: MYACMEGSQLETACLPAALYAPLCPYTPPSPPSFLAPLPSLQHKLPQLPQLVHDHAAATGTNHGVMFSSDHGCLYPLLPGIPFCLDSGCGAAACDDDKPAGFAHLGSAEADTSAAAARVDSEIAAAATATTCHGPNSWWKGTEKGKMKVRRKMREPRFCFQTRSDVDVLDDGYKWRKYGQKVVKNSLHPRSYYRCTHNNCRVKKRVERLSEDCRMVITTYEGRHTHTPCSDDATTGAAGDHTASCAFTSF

The assay addresses OsWRKY34 (Oryza sativa, UniProt Q0JBA9 1-250). Briefly: protein-binding microarray (RPBM); PBS, 2% BSA, 51.3 ng/ul salmon testes DNA, 50 uM zinc acetate, 200 nM TF, 25 C, 1 h; high values mean tight binding. Particulars: protein: recombinant; tags: N-terminal polyhistidine and DsRed monomer fusion (pET32a); label: CyDye5-dUTP incorporated in the synthesized complementary strand; 3' TTTTT single-stranded linker to array surface; dsDNA, one strand shown. In a few lines: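 Binding signal is defined as the fluorescence intensity of each feature in arbitrary units, read on an Axon 4000B scanner. Transcription factors with N-terminal polyhistidine and DsRed fusions came from E. coli BL21-CodonPlus and were purified on Ni–NTA. They were incubated at 200 nM for 1 h at 25 °C on a custom Agilent array that had been made double-stranded with Cy5-dUTP, with 50 µM zinc acetate present, and the array was washed.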
For “GTGGTTTTTTTTCCTGATAGTCACAATTTTAGTTACTTTTCGGAGTCACCTAGTGCAG”, the binding signal is 10700 fluorescence intensity (a.u.).

Take “TAATTTTAGAGTTGGTTTTGGAGTTTTTTTTCATCGTAGTCGGAGTCACCTAGTGCAG”: the binding signal is 10700 fluorescence intensity (a.u.).

Consider “TATCCCTGTTGCTATTCTCGCTACTTAAACGCCACGTTACCGGAGTCACCTAGTGCAG”, for which the binding signal was 9860 fluorescence intensity (a.u.).

Turning to “ATCCTTGCGTACTGTTCATCTTCTTCCTCCGTCAGTTCATCGGAGTCACCTAGTGCAG”, the binding signal is 8120 fluorescence intensity (a.u.).

“GTCCTGGTGGTGCGTTTTAAACCAAACCCGAAATCGCTGACGGAGTCACCTAGTGCAG”: the binding signal was 8230 fluorescence intensity (a.u.).

As for “GTATATATTTAACTGGGGCTAATACTTCATTCTCAGCTTTCGGAGTCACCTAGTGCAG”, the binding signal is 8340 fluorescence intensity (a.u.).

“CGGTGGCCTCCTTCCCACAGCGCTGCCTGTTGCCGGCCTGCGGAGTCACCTAGTGCAG”: the binding signal is 8060 fluorescence intensity (a.u.).

On to “ACGCACATCCCTCCGCCACCGATTTGTTGTCCCCGCCGCCCGGAGTCACCTAGTGCAG”, for which the binding signal is 9020 fluorescence intensity (a.u.).

With “ATATTTCTCAGCAAAACTGAGGCCATATCTTTCATAGTATCGGAGTCACCTAGTGCAG”, the binding signal is 8620 fluorescence intensity (a.u.).

As for “GTGTTCAGTTCTCTTGCTAATTTTTTTTTAAGTATACAGACGGAGTCACCTAGTGCAG”, the binding signal was 8740 fluorescence intensity (a.u.).

With “ATTCACTTTCTTGATTACGTAGAAGCTTCAGTGTCTATTCCGGAGTCACCTAGTGCAG”, the binding signal was 10200 fluorescence intensity (a.u.).

In the case of “ATGTTTAAGTCAGTTTTTAAGTTCGTTCTTTTTAAAACTCCGGAGTCACCTAGTGCAG”, the binding signal is 8290 fluorescence intensity (a.u.).

As to “GTGGTGTTGTTCCTCGTCTACGTGCTCGCGGTGCTTGTGCCGGAGTCACCTAGTGCAG”, the binding signal was 10700 fluorescence intensity (a.u.).

As to “GCTCCTTCTCGCGCTACCCAGCGAACAGCCGCCGCTTCCACGGAGTCACCTAGTGCAG”, the binding signal was 9620 fluorescence intensity (a.u.).

Turning to “ATTGATTGCCCAACTATTACTACCTTCCTGTTTTTTTCTTCGGAGTCACCTAGTGCAG”, the binding signal was 8160 fluorescence intensity (a.u.).

With “ATGTTCTGCCCATGCTTTACTTGCTCCCTGTGCACAAACACGGAGTCACCTAGTGCAG”, the binding signal was 11400 fluorescence intensity (a.u.).

On to “AGGATGGGGTTTTGTGGTACGTGATCATAGTGGATGCTGTCGGAGTCACCTAGTGCAG”, for which the binding signal is 8710 fluorescence intensity (a.u.).

On to “CATCACTACTTCAGTCCAGCCCTGTACATGTACATATATACGGAGTCACCTAGTGCAG”, for which the binding signal was 8480 fluorescence intensity (a.u.).

Take “ACTCGATCACCGCCTCCACCATCACCACCACCACCGCACGCGGAGTCACCTAGTGCAG”: the binding signal is 10600 fluorescence intensity (a.u.).

As to “AATAGATGACATTGTTGACTTATTCTTACATGTTTGCCCACGGAGTCACCTAGTGCAG”, the binding signal was 9350 fluorescence intensity (a.u.).

For “ATGACACTTTCTTAGAGTTACTATTGTTTATTTTTCGCGTCGGAGTCACCTAGTGCAG”, the binding signal is 10700 fluorescence intensity (a.u.).

“TCCCATTACTACATCGTCATTGTGTTCAACTATTGCACTACGGAGTCACCTAGTGCAG”: the binding signal was 9380 fluorescence intensity (a.u.).

In the case of “AGTTCCAGCTCTCTCTCTCTCGTCTTATTGTTGGTCGTTGCGGAGTCACCTAGTGCAG”, the binding signal is 8710 fluorescence intensity (a.u.).

On to “GGGGAGTTGGGATTTTTGGCGATGTGGGTTTCGTACACCGCGGAGTCACCTAGTGCAG”, for which the binding signal was 9870 fluorescence intensity (a.u.).

Regarding “CTTTTTTTTTTTCCCTCCTGCTCTCATCTCAGCCTCTCACCGGAGTCACCTAGTGCAG”, the binding signal is 8800 fluorescence intensity (a.u.).

As to “CGCTGTTGCACCGCCTCCAGCTCGTCCACTACCTCACCACCGGAGTCACCTAGTGCAG”, the binding signal was 8050 fluorescence intensity (a.u.).

For “AAGAAGATCCACTCGTCCCTCGAGCCAACCTGACGACAACCGGAGTCACCTAGTGCAG”, the binding signal is 8120 fluorescence intensity (a.u.).

As to “GAGAGAGTGTAGGTTGCCGATGACGTTCCAAATATTGATCCGGAGTCACCTAGTGCAG”, the binding signal is 8260 fluorescence intensity (a.u.).

Take “CTTTTAGACGCCACTATTGTACTTGTATTTTTTTTTGGGTCGGAGTCACCTAGTGCAG”: the binding signal is 9940 fluorescence intensity (a.u.).

In the case of “GCGGAGGCGCGCCGCCTACAAGCCGAGCGTTGACTCACATCGGAGTCACCTAGTGCAG”, the binding signal is 10500 fluorescence intensity (a.u.).

On to “TTGTATAAGGGCACGGTCTCCAAAAAACAACTTTGACCATCGGAGTCACCTAGTGCAG”, for which the binding signal was 8030 fluorescence intensity (a.u.).

Regarding “CTCCTTTGTTTGCTCTGACCTCCCAATTCACAGCTGGGTCCGGAGTCACCTAGTGCAG”, the binding signal was 10100 fluorescence intensity (a.u.).

Consider “AATGTATGACGCCGTTGACTTTTTAACAAATATTTGACATCGGAGTCACCTAGTGCAG”, for which the binding signal was 20300 fluorescence intensity (a.u.).

In the case of “TTCCAGTCGTCGCCTAAATTAGCGTATCAGTTCCAGTTGTCGGAGTCACCTAGTGCAG”, the binding signal was 8200 fluorescence intensity (a.u.).

As to “GTCAAGCTCGTCCGTCAATTGCATCTTTCACCAAGAAAACCGGAGTCACCTAGTGCAG”, the binding signal was 9030 fluorescence intensity (a.u.).

“ATTTATCCCTGCCTCCAAAATCGTCTCATTTCTAGTATTTCGGAGTCACCTAGTGCAG”: the binding signal is 8610 fluorescence intensity (a.u.).

As for “TCCTCATGCCTCTTTTTCCTCCTCCTTCCTTCTCTCATTCCGGAGTCACCTAGTGCAG”, the binding signal was 10200 fluorescence intensity (a.u.).

In the case of “CGCGCGCAATTGCTTTCCGTGTCCCGCGCCCCGCTAACTCCGGAGTCACCTAGTGCAG”, the binding signal is 8280 fluorescence intensity (a.u.).

Consider “ATGATGTATGGTTTTTGTGCTTGTTGAATTCGTTTGAGAACGGAGTCACCTAGTGCAG”, for which the binding signal was 8480 fluorescence intensity (a.u.).

Turning to “TGCTCAAACATTTTTATTGCCTTATTAACATTTATTTCTTCGGAGTCACCTAGTGCAG”, the binding signal was 9250 fluorescence intensity (a.u.).

With “GGGAGGGAGCCAGAGCGGCGGGCGTGGGGTTGGAGGAGGGCGGAGTCACCTAGTGCAG”, the binding signal is 9900 fluorescence intensity (a.u.).

As for “TTAGCTTATCAGTACACCTAACCAACTGTTTCACCATGCACGGAGTCACCTAGTGCAG”, the binding signal was 8120 fluorescence intensity (a.u.).
